Experimental data: PubChem BioAssay AID493014 (National Center for Advancing Translational Sciences (NCATS), 2011)
The list shows a part of the results. Shown are side measurements of this screen, not its main read-out; they come without a call. Most of these compounds were active or inconclusive in the main read-out, so they are no random draw. Words in brackets tell the shape of the fitted curve; partial curves, single points and poor fits give uncertain potencies.

Assay: qHTS Assay to Find Inhibitors of Chronic Active B-Cell Receptor Signaling
Details: ABC-DLBCL IkBa-CBG/CBR reporter, luminescence ratio (green luciferase fused to IkBa over red control in TMD8 lymphoma cells), 4 h
Outline: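 Cell line TMD8 (human ABC DLBCL), stably expressing tet-inducible CBG68-IkBa fusion and CBR; IMDM/0.5% FBS; cpd up to 46 uM; dox induction, 4 h, 37C/5% CO2; dual luminescence; green/red ratio; MG132 control.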

[1] = measured here: CBR red luminescence, cell number
[2] = measured here: IkBa-CBG green luminescence

| Compound | AC50 [1] | AC50 [2] |
| --- | --- | --- |
| CCN(CCn1cccn1)C(=O)CCc1nnc(C2(c3ccc(Cl)cc3)CCC2)o1 | 4.47 µM [rising, full curve] | – |
| O=C(OCC(=O)c1cccs1)c1ccc(NC(=O)c2ccco2)cc1 | 6.51 µM [rising, single point] | – |
| COc1ccc(/C=N/NC(=O)CNS(=O)(=O)c2ccc(C)cc2)cc1 | 0.1 µM [rising, full curve, poor fit] | – |
| COC(=O)c1ccc(C)c(NC(=O)c2ccc(Cl)c([N+](=O)[O-])c2)c1 | 8.2 µM [rising, partial curve, poor fit] | – |
| CCOC(=O)c1cc(-c2ccco2)nn1-c1ccc(C)cc1 | 11.2 µM [rising, partial curve] | – |
| COc1ccc(/C=N\NC(=O)c2ccc(=O)[nH]n2)cc1O | 29.1 µM [falling, single point] | – |
| CCn1cc(C(=O)NCc2cccnc2)c2cc(OC)c(OC)cc2c1=O | 6.51 µM [rising, single point] | – |
| S=C(Nc1ccccn1)Nc1ccccc1Cl | 11.2 µM [rising, single point] | 12.6 µM [falling, partial curve, poor fit] |
| Cn1c(SCC(=O)N2CCc3ccccc3C2)nnc1-c1ccncc1 | 6.51 µM [rising, single point] | – |
| CCS(=O)(=O)C1=NN2C(=N)/C(=C\c3ccc(SCc4ccco4)o3)C(=O)N=C2S1 | 35.5 µM [rising, single point] | – |
| COc1ccc(OC)c(C(=O)CSc2nc3ncccc3[nH]2)c1 | 15.8 µM [falling, single point] | – |
| O=C(O)C(Cc1c[nH]c2ccccc12)N1C(=O)C2C3c4ccccc4C(c4ccccc43)C2C1=O (stereo not given) | 15.8 µM [falling, partial curve, poor fit] | – |
| CC[C@@H]1[C@H]2CCCC(=O)N3CC[C@@H](C[C@@H]1Nc1ccccc1)[C@@H]23 | 7.08 µM [falling, partial curve, poor fit] | – |
| COc1ccc(CN2CCC(N(CCc3ccccc3)Cc3ccccc3)CC2)c(OC)c1 | 20 µM [falling, single point] | – |
| COc1ccc(C)cc1NC(=O)C/C(C)=N/NC(=O)Cc1cccc2ccccc12 | 35.5 µM [falling, single point] | – |
| O=C(CN1CCC(C(=O)c2ccc3c(c2)OCCO3)CC1)NCc1ccc(F)cc1 | 35.5 µM [falling, single point] | – |
| CCCCn1c(N)c(N(CCOC)C(=O)CN2C(=O)c3ccccc3C2=O)c(=O)[nH]c1=O | 14.1 µM [falling, single point] | – |
| COc1cc(NC(=O)c2ccc3c(c2)OCCO3)ccc1NC(=O)c1ccco1 | 35.5 µM [falling, single point] | – |
| Cc1ccc(NC(=O)c2cccc(Cl)c2)nc1 | 3.98 µM [falling, full curve] | – |

| Compound | AC50 [1] | AC50 [2] |
| --- | --- | --- |
| CCCC(=O)NC(c1ccc(C(C)C)cc1)c1ccc2cccnc2c1O (stereo not given) | 35.5 µM [falling, partial curve, poor fit] | – |
| Cc1cc(NC(=O)CSc2ccc(-c3nc4cc(C)c(C)cc4[nH]3)cn2)no1 | 0.316 µM [falling, full curve, poor fit] | – |
| Oc1ccc(N=C/C=C/c2cccc(Br)c2)cc1-c1nc2ccccc2s1 | 29.1 µM [falling, single point] | – |
| Cc1ccc(-n2ncc3c(NC4CCCC4)ncnc32)cc1 | 1.41 µM [falling, full curve] | – |
| O=C(OC[C@H]1O[C@@H](OC(=O)c2cc(O)c(O)c(OC(=O)c3cc(O)c(O)c(O)c3)c2)[C@H](OC(=O)c2cc(O)c(O)c(OC(=O)c3cc(O)c(O)c(O)c3)c2)[C@@H](OC(=O)c2cc(O)c(O)c(OC(=O)c3cc(O)c(O)c(O)c3)c2)[C@@H]1OC(=O)c1cc(O)c(O)c(OC(=O)c2cc(O)c(O)c(O)c2)c1)c1cc(O)c(O)c(OC(=O)c2cc(O)c(O)c(O)c2)c1 | 25.9 µM [rising, partial curve] | – |
| COc1ccc(NC(=O)c2nnn(Cc3ccc(SC)cc3)c2N)c(OC)c1 | 13 µM [rising, partial curve] | 10.3 µM [falling, partial curve, poor fit] |
| Nc1nc(NC(=O)c2cccnc2)nn1-c1ccccc1 | 11.2 µM [falling, partial curve] | – |
| CC(C(=O)N1CCC(C(N)=O)CC1)N(c1ccc(Oc2ccccc2)cc1)S(C)(=O)=O (stereo not given) | 11.6 µM [rising, single point] | – |
| COc1ccc(C)cc1NC(=O)CN1CCN(S(=O)(=O)c2ccc(C(C)C)cc2)CC1 | – | 3.26 µM [rising, partial curve, poor fit] |
| COc1ccc(C(=O)N/C(=C\c2cn(S(=O)(=O)N(C)C)c3ccccc23)C(=O)NCCCN2CCOCC2)cc1 | 17.8 µM [falling, partial curve, poor fit] | – |
| CCCc1oc(C(=O)O)cc1CN1CCCC1 | 0.92 µM [rising, partial curve, poor fit] | – |
| CCOc1ccc(-n2c(SCC(=O)O)nc3sc4c(c3c2=O)CCCC4)cc1 | 15.8 µM [rising, single point] | – |
| CCOC(=O)C1=C(C)NC(SC)=NC1c1ccccc1 (stereo not given) | 20.6 µM [rising, single point] | – |
| Cc1cccc(NC(=O)COc2ccccc2C(=O)NC(C)c2ccccc2)c1 (stereo not given) | 0.631 µM [rising, full curve, poor fit] | – |
| COc1cccc(/C=N/NC(=S)Nc2cccnc2)c1 | 11.2 µM [falling, partial curve] | 31.6 µM [falling, single point] |
| COC(=O)CCC(=O)N1CCCC(CNS(=O)(=O)c2ccc(OC)cc2)C1 (stereo not given) | 35.5 µM [rising, single point] | – |
| O=C(COc1cccc2cccnc12)N1CCc2ccccc21 | 12.6 µM [falling, partial curve] | – |
| CC(/C=C1\SC(=O)N(CC(=O)Nc2ccc(O)cc2)C1=O)=C\c1ccccc1 | 0.58 µM [rising, full curve] | – |

Part of the list above, reformatted:
Cc1cc(NC(=O)CSc2ccc(-c3nc4cc(C)c(C)cc4[nH]3)cn2)no1
  AC50 [1]: 0.316 µM [falling, full curve, poor fit]
Oc1ccc(N=C/C=C/c2cccc(Br)c2)cc1-c1nc2ccccc2s1
  AC50 [1]: 29.1 µM [falling, single point]
Cc1ccc(-n2ncc3c(NC4CCCC4)ncnc32)cc1
  AC50 [1]: 1.41 µM [falling, full curve]
